Experimental data from the supplement of paper PMC10849652.
The other results are listed elsewhere or left out.

Chains of the proteins cited; added tags and fusions are not shown. Lines headed by an entry give the natural chain unless they say otherwise; changes in a name come on top.
UniProt P48553, whole entry, looked up: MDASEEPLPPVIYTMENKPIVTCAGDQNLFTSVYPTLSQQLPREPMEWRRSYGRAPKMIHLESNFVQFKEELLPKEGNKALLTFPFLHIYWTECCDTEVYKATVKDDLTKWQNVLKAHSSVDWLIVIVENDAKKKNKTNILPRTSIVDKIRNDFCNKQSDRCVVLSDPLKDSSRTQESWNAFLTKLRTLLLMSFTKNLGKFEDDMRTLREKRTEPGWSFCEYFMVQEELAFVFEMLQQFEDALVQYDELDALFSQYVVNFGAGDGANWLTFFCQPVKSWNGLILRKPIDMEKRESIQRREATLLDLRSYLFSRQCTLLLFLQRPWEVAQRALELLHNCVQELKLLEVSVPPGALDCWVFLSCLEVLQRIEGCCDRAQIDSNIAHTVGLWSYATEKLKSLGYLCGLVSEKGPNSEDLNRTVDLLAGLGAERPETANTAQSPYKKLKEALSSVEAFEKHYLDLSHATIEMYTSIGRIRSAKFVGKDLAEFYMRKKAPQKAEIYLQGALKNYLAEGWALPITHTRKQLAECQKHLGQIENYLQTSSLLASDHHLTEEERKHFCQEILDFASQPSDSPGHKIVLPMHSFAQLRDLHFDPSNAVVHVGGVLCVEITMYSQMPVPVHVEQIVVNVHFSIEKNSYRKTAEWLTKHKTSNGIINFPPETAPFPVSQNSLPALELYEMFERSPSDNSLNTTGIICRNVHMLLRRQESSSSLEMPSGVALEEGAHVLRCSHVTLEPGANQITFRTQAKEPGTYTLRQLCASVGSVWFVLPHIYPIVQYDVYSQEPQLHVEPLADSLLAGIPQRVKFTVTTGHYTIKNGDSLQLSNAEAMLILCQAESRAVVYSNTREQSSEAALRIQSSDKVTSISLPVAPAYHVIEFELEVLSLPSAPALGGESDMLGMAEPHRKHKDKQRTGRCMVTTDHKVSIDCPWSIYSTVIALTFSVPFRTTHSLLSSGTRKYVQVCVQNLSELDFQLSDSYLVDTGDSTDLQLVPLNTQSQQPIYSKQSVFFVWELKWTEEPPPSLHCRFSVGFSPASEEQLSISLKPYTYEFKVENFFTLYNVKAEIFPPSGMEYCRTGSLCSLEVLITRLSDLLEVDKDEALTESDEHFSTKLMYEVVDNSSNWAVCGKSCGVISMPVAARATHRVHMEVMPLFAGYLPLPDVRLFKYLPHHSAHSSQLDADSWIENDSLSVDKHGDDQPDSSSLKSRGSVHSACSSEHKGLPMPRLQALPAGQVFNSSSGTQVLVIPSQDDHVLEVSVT
UniProt Q7Z4L5: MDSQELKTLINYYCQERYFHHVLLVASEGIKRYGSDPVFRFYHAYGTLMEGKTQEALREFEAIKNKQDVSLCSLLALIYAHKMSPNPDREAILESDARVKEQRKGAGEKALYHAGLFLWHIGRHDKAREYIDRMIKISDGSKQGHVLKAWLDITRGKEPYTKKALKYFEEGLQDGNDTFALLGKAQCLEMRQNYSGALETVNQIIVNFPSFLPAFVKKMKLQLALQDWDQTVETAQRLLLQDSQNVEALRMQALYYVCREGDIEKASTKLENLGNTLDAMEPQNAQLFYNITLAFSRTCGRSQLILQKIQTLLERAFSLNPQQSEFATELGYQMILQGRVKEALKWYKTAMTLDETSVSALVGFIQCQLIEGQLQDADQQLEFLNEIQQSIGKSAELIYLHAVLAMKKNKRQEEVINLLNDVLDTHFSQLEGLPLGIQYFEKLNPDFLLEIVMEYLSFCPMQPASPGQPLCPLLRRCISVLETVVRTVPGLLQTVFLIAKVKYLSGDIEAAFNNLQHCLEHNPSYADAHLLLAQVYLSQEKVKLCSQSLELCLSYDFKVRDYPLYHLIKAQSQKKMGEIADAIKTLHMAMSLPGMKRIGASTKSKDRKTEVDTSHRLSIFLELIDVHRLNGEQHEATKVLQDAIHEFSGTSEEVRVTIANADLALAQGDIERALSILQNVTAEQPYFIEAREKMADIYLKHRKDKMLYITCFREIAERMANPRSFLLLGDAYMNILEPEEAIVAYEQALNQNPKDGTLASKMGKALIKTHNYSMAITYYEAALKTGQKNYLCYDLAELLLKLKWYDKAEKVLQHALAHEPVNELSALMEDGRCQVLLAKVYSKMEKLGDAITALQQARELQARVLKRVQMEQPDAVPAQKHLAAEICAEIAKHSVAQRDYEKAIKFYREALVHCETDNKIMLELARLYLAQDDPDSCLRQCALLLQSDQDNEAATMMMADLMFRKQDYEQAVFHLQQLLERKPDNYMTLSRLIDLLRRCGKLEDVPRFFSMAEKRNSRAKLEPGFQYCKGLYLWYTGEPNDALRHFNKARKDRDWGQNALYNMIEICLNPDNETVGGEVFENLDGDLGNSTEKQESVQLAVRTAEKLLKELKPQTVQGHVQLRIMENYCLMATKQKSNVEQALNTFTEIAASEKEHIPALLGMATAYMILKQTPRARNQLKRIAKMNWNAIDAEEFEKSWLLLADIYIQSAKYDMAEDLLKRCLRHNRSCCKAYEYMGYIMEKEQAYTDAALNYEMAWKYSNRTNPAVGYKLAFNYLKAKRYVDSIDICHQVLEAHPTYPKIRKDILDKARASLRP
UniProt Q9NUP7: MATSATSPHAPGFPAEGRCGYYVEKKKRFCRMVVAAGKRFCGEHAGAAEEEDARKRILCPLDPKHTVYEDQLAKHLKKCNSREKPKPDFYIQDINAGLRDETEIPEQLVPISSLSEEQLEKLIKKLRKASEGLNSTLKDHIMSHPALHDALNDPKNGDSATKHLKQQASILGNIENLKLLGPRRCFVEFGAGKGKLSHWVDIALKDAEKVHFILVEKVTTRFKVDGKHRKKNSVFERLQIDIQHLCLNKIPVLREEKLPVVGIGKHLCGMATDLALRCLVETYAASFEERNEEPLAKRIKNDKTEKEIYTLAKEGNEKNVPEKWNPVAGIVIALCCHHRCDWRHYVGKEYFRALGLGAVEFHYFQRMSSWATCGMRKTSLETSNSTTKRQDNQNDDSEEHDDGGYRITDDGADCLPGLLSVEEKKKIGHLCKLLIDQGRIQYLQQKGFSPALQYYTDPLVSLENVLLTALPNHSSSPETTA
UniProt Q9BUZ4: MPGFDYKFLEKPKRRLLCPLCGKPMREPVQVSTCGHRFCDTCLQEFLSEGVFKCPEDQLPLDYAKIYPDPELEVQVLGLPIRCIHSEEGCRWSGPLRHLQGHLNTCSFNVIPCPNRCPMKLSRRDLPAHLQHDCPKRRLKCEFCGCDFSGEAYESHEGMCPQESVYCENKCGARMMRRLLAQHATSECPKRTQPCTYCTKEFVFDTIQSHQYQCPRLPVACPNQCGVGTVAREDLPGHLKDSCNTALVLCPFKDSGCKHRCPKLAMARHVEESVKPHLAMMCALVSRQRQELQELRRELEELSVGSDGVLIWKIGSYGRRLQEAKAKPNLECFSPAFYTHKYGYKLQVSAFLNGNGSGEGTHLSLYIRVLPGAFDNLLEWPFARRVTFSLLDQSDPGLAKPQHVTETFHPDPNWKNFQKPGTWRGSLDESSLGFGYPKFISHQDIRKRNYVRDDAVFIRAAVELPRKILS
UniProt Q9Y296, whole entry, looked up: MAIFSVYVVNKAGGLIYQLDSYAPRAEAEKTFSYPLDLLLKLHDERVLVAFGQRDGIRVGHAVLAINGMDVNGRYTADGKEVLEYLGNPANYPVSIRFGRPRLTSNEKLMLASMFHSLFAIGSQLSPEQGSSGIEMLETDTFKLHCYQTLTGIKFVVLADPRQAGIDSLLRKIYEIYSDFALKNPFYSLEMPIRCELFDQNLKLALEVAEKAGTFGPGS
UniProt Q15643: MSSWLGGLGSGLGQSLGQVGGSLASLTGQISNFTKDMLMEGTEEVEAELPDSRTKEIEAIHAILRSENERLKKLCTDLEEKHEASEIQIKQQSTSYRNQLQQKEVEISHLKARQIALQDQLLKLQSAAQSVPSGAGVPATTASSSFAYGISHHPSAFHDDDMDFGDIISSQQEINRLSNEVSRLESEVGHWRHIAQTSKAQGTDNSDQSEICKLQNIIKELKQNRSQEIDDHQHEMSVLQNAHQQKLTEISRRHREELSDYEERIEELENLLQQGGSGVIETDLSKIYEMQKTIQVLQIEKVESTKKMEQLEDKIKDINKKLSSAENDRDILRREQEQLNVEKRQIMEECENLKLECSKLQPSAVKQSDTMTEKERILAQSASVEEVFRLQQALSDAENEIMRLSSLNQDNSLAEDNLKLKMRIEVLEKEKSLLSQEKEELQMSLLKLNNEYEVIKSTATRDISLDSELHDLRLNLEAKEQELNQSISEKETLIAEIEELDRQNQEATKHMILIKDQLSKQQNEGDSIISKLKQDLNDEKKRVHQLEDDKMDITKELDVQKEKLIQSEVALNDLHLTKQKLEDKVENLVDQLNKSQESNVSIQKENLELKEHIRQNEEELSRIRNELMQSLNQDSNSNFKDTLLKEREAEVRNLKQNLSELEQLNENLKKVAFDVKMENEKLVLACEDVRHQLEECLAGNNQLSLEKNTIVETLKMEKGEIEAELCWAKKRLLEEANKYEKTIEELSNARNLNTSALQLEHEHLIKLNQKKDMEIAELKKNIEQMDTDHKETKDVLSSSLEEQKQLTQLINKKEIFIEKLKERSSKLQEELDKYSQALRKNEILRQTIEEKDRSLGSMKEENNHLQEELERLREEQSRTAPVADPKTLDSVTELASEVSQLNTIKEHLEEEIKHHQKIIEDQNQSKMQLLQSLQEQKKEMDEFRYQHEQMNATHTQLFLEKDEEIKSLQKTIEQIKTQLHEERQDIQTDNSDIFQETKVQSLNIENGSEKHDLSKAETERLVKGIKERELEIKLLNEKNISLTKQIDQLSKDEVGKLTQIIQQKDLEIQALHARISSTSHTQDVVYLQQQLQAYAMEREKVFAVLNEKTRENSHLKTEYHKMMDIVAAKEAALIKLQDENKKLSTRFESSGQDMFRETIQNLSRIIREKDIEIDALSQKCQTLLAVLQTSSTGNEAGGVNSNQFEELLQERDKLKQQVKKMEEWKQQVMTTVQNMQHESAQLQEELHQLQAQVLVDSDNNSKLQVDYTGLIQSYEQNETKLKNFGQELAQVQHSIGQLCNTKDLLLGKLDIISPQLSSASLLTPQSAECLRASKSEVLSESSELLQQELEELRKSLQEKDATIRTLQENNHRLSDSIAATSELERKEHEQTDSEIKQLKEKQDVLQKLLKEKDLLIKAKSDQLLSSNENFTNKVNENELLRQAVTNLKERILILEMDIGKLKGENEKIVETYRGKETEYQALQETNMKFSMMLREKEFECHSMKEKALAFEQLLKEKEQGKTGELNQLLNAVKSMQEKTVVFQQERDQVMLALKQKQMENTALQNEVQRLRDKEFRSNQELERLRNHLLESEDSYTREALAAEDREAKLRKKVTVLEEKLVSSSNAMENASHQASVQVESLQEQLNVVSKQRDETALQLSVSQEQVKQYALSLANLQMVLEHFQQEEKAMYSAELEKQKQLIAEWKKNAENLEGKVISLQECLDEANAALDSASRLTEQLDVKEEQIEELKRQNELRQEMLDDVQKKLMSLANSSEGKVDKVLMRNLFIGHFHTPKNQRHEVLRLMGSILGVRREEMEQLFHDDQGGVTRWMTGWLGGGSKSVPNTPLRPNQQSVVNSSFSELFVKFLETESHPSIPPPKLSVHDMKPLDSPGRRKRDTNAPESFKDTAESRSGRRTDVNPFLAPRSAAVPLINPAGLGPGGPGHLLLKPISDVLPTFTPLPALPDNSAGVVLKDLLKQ
UniProt Q96Q11: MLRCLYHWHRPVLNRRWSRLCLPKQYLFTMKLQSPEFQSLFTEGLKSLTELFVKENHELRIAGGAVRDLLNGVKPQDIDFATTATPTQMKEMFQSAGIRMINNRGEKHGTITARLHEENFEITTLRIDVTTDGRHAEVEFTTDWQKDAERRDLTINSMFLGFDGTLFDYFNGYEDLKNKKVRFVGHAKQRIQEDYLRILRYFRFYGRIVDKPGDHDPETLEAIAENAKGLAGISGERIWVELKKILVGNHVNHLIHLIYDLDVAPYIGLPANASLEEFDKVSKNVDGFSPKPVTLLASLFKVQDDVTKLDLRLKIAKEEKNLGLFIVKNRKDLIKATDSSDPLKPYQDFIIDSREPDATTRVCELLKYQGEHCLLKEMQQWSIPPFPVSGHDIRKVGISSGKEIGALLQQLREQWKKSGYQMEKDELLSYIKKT
UniProt A5PLN9: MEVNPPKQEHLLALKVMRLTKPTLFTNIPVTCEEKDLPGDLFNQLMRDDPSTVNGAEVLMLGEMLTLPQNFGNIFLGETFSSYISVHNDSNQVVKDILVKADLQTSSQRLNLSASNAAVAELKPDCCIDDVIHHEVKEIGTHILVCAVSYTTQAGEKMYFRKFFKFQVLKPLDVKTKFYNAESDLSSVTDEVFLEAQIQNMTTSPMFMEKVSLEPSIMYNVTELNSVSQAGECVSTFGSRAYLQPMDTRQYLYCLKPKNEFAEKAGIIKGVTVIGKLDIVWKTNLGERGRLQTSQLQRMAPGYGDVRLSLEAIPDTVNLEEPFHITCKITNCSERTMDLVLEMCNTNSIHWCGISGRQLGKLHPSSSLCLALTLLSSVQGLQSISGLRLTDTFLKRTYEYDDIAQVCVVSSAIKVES

Columns and labels:
Assay in all cases: log2 fold change, soluble protein after heating vs DMSO (PISA); higher = thermal stabilisation; K562 lysate, 10 uM; active = over 0.2 and 3.5 SD of the protein, either way, in both replicates (recomputed)
[1] = compound: C1=CC=C(C=C1)[C@H](COC2=CC3=C(C=C2)NC(=O)N3)NC(=O)C4=CC=CN(C4=O)CC5=CC(=C(C=C5)F)F
Summary of the method: (§1)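 Values give the log-two fold change in thermal stability against solvent controls, from duplicates. Crude K562 extract at 1 mg/mL protein, made by dounce homogenisation in PBS pH 7.4 with 1 mM MgCl2, was treated with 10 μM compound for 30 min. After 3 min heating across 48°C-58°C, aliquots were pooled, adjusted to 0.5% NP-40 at 4°C and centrifuged at 21,000xg for 90 min. The supernatant was measured by TMTpro 16plex LC-MS/MS with channel sums equalised.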

[2] = compound: CC1=C(SC2=C1C(=N[C@H](C3=NN=C(N32)C)CC(=O)N)C4=CC=C(C=C4)Cl)C
Summary of the method: as §1

[3] = compound: CC1=C2C(=CC=C1)N=C(N(C2=O)C3=CC=CC=C3C)CN4C=NC5=C(N=CN=C54)N
Summary of the method: as §1

[4] = compound: Cc1sc2c(c1C)C(c1ccc(Cl)cc1)=N[C@@H](CC(=O)OC(C)(C)C)c1nnc(C)n1-2
Summary of the method: as §1

[5] = compound: c1ccc([C@@H]2C[C@H]2NC2CCNCC2)cc1
Summary of the method: as §1

Measured: log2 fold change

TRMO (UniProt Q9BU70)
inactive: [1] 0.097 | [2] -0.148 | [3] -0.02 | [4] 0.123

TSEN54 (UniProt Q7Z6J9)
inactive: [1] -0.006 | [2] 0.03 | [3] 0.014 | [4] 0.033 | [5] -0.027

TRIM5 (UniProt Q9C035)
inactive: [1] 0.068 | [2] 0.026 | [3] -0.032 | [4] -0.044 | [5] -0.004

TSC1 (UniProt Q92574)
inactive: [1] -0.006 | [2] -0.094 | [3] 0.067 | [4] -0.005 | [5] 0.036

TRIM21 (UniProt P19474)
inactive: [1] 0.006 | [2] 0.039 | [3] 0.069 | [4] -0.012 | [5] 0.259

TTC27 (UniProt Q6P3X3)
inactive: [1] -0.039 | [2] -0.021 | [3] 0.028 | [4] -0.019 | [5] 0.032

TRNAU1AP (UniProt Q9NX07)
inactive: [1] -0.068 | [2] -0.008 | [3] 0.195 | [4] -0.025 | [5] -0.048

TRMT61B (UniProt Q9BVS5)
inactive: [1] 0.015 | [2] 0.039 | [3] 0.013 | [4] 0 | [5] -0.014

TTC19 (UniProt Q6DKK2)
inactive: [1] 0.003 | [2] 0.046 | [3] -0.003 | [4] -0.012 | [5] -0.045

TTC37 (UniProt Q6PGP7)
inactive: [1] -0.08 | [2] 0.044 | [3] 0.16 | [4] -0.3

TRIP10 (UniProt Q15642)
inactive: [1] 0.128 | [2] -0.018 | [3] -0.008 | [4] -0.043 | [5] -0.047

TTI2 (UniProt Q6NXR4)
inactive: [1] -0.044 | [2] 0.009 | [3] 0.033 | [4] -0.035 | [5] 0.024

TSEN2 (UniProt Q8NCE0)
inactive: [1] 0.034 | [2] 0.004 | [3] 0.08 | [4] -0.088 | [5] 0

TRAPPC10 (UniProt P48553)
inactive: [1] -0.014 | [2] -0.015 | [3] 0.033 | [4] -0.004 | [5] -0.012

TRIOBP (UniProt Q9H2D6)
inactive: [1] -0.062 | [2] 0.002 | [3] -0.085 | [4] -0.046 | [5] -0.068

TRAPPC6A isoform 2 (UniProt O75865)
inactive: [1] 0.025 | [2] 0.046 | [3] -0.043 | [4] -0.003 | [5] 0.014

TRIP12 isoform 2 (UniProt Q14669)
inactive: [1] -0.043 | [2] 0.07 | [3] -0.018 | [4] 0 | [5] 0.062

TRIP10 isoform 2 (UniProt Q15642)
inactive: [1] 0.028 | [2] 0.023 | [3] -0.136 | [4] -0.212 | [5] 0.004

TRAP1 (UniProt Q12931)
inactive: [1] -0.007 | [2] 0.021 | [3] 0.006 | [4] 0.042 | [5] 0.035

TRIM11 (UniProt Q96F44)
inactive: [1] 0.028 | [2] 0.035 | [3] 0.04 | [4] -0.011 | [5] -0.001

TRMT2A (UniProt Q8IZ69)
inactive: [1] 0.003 | [2] 0.02 | [3] 0.003 | [4] 0.02 | [5] 0.027

TSC22D1 (UniProt Q15714)
inactive: [1] 0.03 | [2] -0.021 | [3] -0.006 | [4] -0.041 | [5] 0.023

TTC21B (UniProt Q7Z4L5)
inactive: [1] 0.208 | [2] 0.046 | [3] 0.068 | [4] -0.276 | [5] -0.065

TRMT12 (UniProt Q53H54)
inactive: [1] 0.104 | [2] -0.023 | [3] -0.007 | [4] -0.061 | [5] 0.076

TSR1 (UniProt Q2NL82)
inactive: [1] 0.01 | [2] 0.026 | [3] 0.038 | [4] 0.041 | [5] 0.067

TRAPPC12 (UniProt Q8WVT3)
inactive: [1] 0.005 | [2] -0.016 | [3] -0.023 | [4] 0.003 | [5] 0.015

TRMT112 (UniProt Q9UI30)
inactive: [1] -0.039 | [2] 0.017 | [3] 0.067 | [4] 0.037 | [5] -0.012

TRMT13 (UniProt Q9NUP7)
inactive: [1] 0.013 | [2] -0.012 | [3] 0.004 | [4] 0.009 | [5] -0.066

TRAF3 (UniProt Q13114)
inactive: [1] -0.197 | [2] -0.084 | [3] -0.028 | [4] 0.001 | [5] -0.021

TRMT11 (UniProt Q7Z4G4)
inactive: [1] 0 | [2] 0.049 | [3] 0 | [4] 0.039 | [5] 0.021

TSG101 (UniProt Q99816)
inactive: [1] 0.013 | [2] 0.003 | [3] 0.018 | [4] 0.008 | [5] -0.089

TRIP6 (UniProt Q15654)
inactive: [1] 0.02 | [2] 0.029 | [3] -0.01 | [4] 0.014 | [5] -0.027

TRIM24 (UniProt O15164)
inactive: [1] 0.018 | [2] -0.031 | [3] 0.021 | [4] 0.015 | [5] 0.034

TRIM58 (UniProt Q8NG06)
inactive: [1] -0.011 | [2] 0.064 | [3] -0.037 | [4] 0.032 | [5] 0.037

TRMT61A (UniProt Q96FX7)
inactive: [1] 0.042 | [2] -0.071 | [3] 0.005 | [4] -0.074 | [5] 0.007

TSFM (UniProt P43897)
inactive: [1] 0.006 | [2] 0.007 | [3] 0.027 | [4] 0.066 | [5] -0.092

TTI1 (UniProt O43156)
inactive: [1] -0.004 | [2] -0.011 | [3] -0.004 | [4] 0.034 | [5] 0.051

TRAPPC1 (UniProt Q9Y5R8)
inactive: [1] 0.039 | [2] 0.077 | [3] -0.009 | [4] 0.024 | [5] -0.088

TSNAX (UniProt Q99598)
inactive: [1] 0.019 | [2] 0.014 | [3] 0 | [4] -0.036 | [5] 0.007

TRAF4 (UniProt Q9BUZ4)
inactive: [1] 0.153 | [2] 0.094 | [3] 0.052 | [4] -0.011 | [5] -0.011

TTLL12 (UniProt Q14166)
inactive: [1] -0.004 | [2] 0.013 | [3] 0.011 | [4] 0.015 | [5] 0.033

TTMP isoform 3 (UniProt Q5BVD1)
inactive: [1] -0.051 | [2] 0.091 | [3] 0.135 | [4] -0.148 | [5] -0.498

14 neighbouring entries out of the list so far:
TRMT13 (UniProt Q9NUP7)
inactive: [1] 0.013 | [2] -0.012 | [3] 0.004 | [4] 0.009 | [5] -0.066

TRAF3 (UniProt Q13114)
inactive: [1] -0.197 | [2] -0.084 | [3] -0.028 | [4] 0.001 | [5] -0.021

TRMT11 (UniProt Q7Z4G4)
inactive: [1] 0 | [2] 0.049 | [3] 0 | [4] 0.039 | [5] 0.021

TSG101 (UniProt Q99816)
inactive: [1] 0.013 | [2] 0.003 | [3] 0.018 | [4] 0.008 | [5] -0.089

TRIP6 (UniProt Q15654)
inactive: [1] 0.02 | [2] 0.029 | [3] -0.01 | [4] 0.014 | [5] -0.027

TRIM24 (UniProt O15164)
inactive: [1] 0.018 | [2] -0.031 | [3] 0.021 | [4] 0.015 | [5] 0.034

TRIM58 (UniProt Q8NG06)
inactive: [1] -0.011 | [2] 0.064 | [3] -0.037 | [4] 0.032 | [5] 0.037

TRMT61A (UniProt Q96FX7)
inactive: [1] 0.042 | [2] -0.071 | [3] 0.005 | [4] -0.074 | [5] 0.007

TSFM (UniProt P43897)
inactive: [1] 0.006 | [2] 0.007 | [3] 0.027 | [4] 0.066 | [5] -0.092

TTI1 (UniProt O43156)
inactive: [1] -0.004 | [2] -0.011 | [3] -0.004 | [4] 0.034 | [5] 0.051

TRAPPC1 (UniProt Q9Y5R8)
inactive: [1] 0.039 | [2] 0.077 | [3] -0.009 | [4] 0.024 | [5] -0.088

TSNAX (UniProt Q99598)
inactive: [1] 0.019 | [2] 0.014 | [3] 0 | [4] -0.036 | [5] 0.007

TRAF4 (UniProt Q9BUZ4)
inactive: [1] 0.153 | [2] 0.094 | [3] 0.052 | [4] -0.011 | [5] -0.011

TTLL12 (UniProt Q14166)
inactive: [1] -0.004 | [2] 0.013 | [3] 0.011 | [4] 0.015 | [5] 0.033

(listing goes on)

TRAPPC4 (UniProt Q9Y296)
inactive: [1] -0.023 | [2] -0.01 | [3] 0.015 | [4] 0.013 | [5] 0.051

TRIP11 (UniProt Q15643)
inactive: [1] 0.057 | [2] -0.002 | [3] 0.025 | [4] -0.013 | [5] -0.031

TRNT1 (UniProt Q96Q11)
inactive: [1] 0.061 | [2] -0.004 | [3] -0.04 | [4] 0.045 | [5] 0.031

TRAPPC2 isoform 3 (UniProt P0DI81)
inactive: [1] 0.009 | [2] -0.025 | [3] 0.01 | [4] 0.054 | [5] -0.01

TSTA3 (UniProt Q13630)
inactive: [1] 0.007 | [2] 0.042 | [3] -0.009 | [4] 0.047 | [5] 0.011

TRAPPC13 isoform 4 (UniProt A5PLN9)
inactive: [1] -0.006 | [2] 0.029 | [3] 0.013 | [4] 0.046 | [5] -0.024

TSC2 isoform 4 (UniProt P49815)
inactive: [1] 0.036 | [2] 0.055 | [3] -0.019 | [4] -0.052 | [5] -0.012

TRAM1 (UniProt Q15629)
inactive: [1] -0.214 | [2] -0.011 | [3] 0.043 | [4] 0.006 | [5] -0.015

TRAPPC11 (UniProt Q7Z392)
inactive: [1] 0.022 | [2] 0.023 | [3] 0.05 | [4] -0.001 | [5] -0.008

TRIR (UniProt Q9BQ61)
inactive: [1] 0.081 | [2] -0.035 | [3] -0.019 | [4] -0.044 | [5] -0.066

TRIM33 isoform 2 (UniProt Q9UPN9)
inactive: [1] 0.003 | [2] 0.009 | [3] 0.022 | [4] 0.011 | [5] 0.005
